# Results taken from the supplement of paper PMC12819154, “High-throughput peptide-centric local stability assay extends protein–ligand identification to membrane proteins, tissues and bacteria” (Nature Structural & Molecular Biology, 2025).
# Amino acid sequences for entries named in this document (tags omitted). A change or cut given only in a name is not applied to a line headed by its entry.
# UniProt P25705: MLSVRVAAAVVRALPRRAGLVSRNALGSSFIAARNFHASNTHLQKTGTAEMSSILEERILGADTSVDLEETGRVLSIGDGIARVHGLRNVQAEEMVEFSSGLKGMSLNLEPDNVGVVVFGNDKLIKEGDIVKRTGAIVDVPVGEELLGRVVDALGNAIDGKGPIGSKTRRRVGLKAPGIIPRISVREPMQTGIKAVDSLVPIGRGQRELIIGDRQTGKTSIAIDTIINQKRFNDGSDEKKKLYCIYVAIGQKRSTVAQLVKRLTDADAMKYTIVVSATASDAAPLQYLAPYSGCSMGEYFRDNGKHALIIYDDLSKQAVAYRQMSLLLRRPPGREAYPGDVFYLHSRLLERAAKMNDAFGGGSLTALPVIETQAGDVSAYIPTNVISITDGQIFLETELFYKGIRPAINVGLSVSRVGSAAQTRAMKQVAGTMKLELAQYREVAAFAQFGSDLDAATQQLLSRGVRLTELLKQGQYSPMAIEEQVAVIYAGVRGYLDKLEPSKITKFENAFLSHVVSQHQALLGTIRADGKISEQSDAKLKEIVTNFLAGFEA
# UniProt P20823, whole entry: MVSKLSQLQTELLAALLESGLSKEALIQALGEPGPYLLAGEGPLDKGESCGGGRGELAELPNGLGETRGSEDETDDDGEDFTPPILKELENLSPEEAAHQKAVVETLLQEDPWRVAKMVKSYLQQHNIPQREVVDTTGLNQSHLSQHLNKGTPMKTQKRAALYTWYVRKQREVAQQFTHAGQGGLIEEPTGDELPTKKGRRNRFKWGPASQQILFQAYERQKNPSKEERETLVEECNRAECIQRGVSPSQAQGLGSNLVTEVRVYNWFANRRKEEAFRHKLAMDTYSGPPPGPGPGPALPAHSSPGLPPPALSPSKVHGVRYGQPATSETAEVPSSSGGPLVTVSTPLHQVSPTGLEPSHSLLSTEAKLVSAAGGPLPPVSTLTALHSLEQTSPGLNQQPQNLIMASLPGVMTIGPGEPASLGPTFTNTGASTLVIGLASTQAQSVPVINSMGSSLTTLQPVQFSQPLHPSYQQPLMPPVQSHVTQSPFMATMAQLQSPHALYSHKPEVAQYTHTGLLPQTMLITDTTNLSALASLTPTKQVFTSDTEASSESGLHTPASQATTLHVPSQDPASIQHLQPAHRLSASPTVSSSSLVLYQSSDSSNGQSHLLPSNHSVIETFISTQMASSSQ
# UniProt P17980, whole entry: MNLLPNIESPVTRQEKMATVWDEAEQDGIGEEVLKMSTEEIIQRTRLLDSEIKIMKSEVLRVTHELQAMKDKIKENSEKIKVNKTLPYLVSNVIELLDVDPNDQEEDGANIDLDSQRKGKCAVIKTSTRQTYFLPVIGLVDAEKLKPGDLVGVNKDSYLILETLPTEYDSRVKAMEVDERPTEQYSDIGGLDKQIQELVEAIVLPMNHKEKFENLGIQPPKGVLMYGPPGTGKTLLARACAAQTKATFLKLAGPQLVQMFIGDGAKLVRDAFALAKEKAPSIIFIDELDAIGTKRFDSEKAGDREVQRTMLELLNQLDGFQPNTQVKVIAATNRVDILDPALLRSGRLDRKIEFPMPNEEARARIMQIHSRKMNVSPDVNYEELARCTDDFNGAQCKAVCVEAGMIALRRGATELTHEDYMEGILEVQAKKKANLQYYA
# UniProt P17017: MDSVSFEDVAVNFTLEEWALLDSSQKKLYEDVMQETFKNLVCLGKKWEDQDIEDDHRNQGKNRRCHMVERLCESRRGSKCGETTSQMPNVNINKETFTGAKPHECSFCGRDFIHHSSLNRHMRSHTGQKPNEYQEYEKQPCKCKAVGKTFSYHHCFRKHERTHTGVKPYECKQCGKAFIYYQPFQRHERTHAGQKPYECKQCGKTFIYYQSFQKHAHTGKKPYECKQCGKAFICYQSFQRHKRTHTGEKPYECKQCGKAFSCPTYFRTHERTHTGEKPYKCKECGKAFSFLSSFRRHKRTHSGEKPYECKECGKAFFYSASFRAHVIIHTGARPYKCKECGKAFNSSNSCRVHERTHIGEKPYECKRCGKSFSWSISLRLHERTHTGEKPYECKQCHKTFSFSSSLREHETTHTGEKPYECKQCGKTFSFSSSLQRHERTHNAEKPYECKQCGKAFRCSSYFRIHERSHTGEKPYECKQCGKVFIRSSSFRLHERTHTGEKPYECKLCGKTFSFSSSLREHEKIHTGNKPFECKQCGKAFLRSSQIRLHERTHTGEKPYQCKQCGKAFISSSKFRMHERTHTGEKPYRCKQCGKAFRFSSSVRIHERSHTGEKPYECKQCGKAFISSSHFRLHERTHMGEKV
# UniProt P21675, whole entry: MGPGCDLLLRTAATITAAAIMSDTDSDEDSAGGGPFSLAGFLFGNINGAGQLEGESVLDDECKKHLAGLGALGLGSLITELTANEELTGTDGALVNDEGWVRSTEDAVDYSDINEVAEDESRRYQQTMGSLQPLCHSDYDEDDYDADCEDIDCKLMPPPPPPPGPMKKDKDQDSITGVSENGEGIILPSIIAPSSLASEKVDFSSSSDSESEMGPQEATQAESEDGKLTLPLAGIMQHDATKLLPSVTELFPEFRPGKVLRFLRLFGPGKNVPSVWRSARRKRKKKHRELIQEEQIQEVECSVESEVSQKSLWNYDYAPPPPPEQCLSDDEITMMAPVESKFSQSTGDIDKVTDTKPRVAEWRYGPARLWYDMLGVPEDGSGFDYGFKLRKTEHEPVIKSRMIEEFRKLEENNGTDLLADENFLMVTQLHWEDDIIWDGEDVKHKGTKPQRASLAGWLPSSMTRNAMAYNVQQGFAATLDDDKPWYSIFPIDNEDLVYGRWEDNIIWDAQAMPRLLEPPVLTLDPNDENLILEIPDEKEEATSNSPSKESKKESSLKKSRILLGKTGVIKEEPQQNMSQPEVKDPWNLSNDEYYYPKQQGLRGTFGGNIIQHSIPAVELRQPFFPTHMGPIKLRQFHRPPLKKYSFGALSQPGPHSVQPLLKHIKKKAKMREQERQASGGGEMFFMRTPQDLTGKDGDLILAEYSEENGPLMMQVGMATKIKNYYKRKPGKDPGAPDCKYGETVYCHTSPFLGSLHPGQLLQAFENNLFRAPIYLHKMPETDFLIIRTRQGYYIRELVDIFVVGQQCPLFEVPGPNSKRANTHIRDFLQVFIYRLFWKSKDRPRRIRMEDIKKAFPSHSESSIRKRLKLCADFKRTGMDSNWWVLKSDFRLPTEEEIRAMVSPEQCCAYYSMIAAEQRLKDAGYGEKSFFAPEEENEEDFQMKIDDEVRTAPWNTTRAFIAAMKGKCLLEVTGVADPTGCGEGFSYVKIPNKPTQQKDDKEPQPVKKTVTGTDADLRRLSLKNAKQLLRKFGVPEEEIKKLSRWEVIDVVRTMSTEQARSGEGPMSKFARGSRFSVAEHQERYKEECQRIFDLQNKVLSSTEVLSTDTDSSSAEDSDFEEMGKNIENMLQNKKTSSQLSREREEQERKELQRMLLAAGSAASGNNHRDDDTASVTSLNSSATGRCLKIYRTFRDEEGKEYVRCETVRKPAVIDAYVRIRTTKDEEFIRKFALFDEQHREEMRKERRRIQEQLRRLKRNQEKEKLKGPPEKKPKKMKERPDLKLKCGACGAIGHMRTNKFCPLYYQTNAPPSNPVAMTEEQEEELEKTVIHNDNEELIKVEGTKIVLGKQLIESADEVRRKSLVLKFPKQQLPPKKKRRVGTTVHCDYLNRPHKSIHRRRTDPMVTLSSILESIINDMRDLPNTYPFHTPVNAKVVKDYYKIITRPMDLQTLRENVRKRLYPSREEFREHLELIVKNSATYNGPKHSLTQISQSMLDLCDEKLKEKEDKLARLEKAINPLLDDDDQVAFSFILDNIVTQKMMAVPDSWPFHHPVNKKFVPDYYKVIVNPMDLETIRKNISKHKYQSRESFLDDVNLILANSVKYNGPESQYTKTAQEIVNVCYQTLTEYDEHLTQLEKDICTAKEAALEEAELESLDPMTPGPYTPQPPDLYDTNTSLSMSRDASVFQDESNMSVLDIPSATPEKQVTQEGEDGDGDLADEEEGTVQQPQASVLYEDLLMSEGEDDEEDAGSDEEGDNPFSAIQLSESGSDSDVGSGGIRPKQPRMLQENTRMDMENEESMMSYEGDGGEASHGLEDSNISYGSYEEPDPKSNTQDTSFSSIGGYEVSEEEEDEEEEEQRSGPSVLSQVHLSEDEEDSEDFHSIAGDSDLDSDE
# UniProt P27469: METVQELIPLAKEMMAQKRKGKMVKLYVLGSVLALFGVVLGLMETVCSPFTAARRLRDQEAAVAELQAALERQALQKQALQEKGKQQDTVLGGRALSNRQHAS
# UniProt P23786: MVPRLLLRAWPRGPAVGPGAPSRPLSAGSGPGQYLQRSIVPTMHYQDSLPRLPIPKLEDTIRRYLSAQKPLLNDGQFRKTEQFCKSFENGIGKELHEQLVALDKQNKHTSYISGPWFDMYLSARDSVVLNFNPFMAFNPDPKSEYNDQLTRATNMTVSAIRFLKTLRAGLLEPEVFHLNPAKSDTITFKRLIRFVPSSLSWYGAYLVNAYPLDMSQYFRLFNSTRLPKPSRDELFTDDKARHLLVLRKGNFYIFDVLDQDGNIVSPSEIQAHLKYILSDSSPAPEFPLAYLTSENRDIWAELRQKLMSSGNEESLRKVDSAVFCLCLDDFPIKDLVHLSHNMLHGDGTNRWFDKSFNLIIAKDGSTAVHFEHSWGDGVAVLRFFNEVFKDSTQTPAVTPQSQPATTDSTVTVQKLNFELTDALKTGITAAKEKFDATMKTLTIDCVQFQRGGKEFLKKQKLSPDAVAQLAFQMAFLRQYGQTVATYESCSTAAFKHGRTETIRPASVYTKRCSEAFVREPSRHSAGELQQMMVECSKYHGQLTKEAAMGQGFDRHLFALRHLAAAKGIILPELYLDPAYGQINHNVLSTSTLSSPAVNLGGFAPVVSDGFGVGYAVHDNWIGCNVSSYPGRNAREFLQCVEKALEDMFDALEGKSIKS
# UniProt P23919: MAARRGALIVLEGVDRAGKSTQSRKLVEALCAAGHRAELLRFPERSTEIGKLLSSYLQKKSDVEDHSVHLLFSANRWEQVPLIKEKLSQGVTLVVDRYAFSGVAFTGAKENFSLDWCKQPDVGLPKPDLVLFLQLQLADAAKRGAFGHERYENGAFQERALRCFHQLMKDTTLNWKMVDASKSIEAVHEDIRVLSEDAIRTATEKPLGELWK
# UniProt P15907: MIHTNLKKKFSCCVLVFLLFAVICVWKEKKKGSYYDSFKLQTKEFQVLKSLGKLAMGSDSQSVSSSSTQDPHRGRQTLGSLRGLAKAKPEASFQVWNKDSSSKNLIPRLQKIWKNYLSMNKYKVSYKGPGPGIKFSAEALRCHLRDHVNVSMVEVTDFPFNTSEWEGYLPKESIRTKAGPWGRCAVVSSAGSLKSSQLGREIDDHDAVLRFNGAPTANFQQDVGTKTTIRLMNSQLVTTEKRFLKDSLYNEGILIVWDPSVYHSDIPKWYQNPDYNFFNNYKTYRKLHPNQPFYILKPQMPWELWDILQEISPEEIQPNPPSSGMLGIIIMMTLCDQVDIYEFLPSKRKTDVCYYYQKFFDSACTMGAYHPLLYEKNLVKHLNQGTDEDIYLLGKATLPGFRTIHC
# UniProt P17029: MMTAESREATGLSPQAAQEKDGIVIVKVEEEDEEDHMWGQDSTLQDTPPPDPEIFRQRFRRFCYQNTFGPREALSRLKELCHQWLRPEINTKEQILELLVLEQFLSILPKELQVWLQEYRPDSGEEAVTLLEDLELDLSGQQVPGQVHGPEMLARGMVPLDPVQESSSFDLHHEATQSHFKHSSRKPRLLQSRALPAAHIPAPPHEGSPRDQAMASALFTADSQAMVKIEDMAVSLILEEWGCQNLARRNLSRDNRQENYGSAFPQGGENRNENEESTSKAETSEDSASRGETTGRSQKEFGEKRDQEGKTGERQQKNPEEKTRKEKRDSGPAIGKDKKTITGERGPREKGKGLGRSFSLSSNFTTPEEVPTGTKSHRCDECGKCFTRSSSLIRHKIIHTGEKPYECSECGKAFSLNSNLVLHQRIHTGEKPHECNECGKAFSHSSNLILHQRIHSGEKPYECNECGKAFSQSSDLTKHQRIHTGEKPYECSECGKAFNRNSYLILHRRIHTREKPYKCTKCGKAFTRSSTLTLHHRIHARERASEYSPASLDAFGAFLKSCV
# UniProt P23763, whole entry: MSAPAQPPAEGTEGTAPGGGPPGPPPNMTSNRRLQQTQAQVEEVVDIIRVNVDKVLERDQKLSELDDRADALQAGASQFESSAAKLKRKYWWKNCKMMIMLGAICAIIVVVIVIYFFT
# UniProt P25686: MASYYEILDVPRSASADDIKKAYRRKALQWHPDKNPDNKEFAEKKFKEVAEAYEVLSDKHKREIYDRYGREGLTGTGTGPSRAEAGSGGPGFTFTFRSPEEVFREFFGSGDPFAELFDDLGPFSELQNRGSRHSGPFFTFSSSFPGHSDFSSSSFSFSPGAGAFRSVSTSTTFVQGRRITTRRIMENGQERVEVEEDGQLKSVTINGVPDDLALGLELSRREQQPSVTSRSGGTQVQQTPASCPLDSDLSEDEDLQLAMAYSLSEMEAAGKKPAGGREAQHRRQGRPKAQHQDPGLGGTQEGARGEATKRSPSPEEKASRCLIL
# Some of the results follow. Most entries show no effect beyond the scatter of the controls.
# Compound: CN[C@@H]1C[C@H]2O[C@@](C)([C@@H]1OC)n1c3ccccc3c3c4c(c5c6ccccc6n2c5c31)C(=O)NC4 [staurosporine]
# Assay: log2 fold change of tryptic peptide abundance, ligand vs vehicle (limited proteolysis) (log2 ratio); higher = more trypsin-susceptible (destabilized)
# Settings: ligand concentration: 20 uM; sample: K562 cleared lysate; digestion: 4 min, 22 C (HT-PELSA RT4min, Orbitrap Astral)
row,Target,log2 fold change
1,"UniProt P25705 (peptide sequence: DNGKHALIIYDDLSKQAVAYR, peptide start residue: 302)",0.783
2,"POU2F1 (peptide sequence: TIAATPIQTLPQSQSTPK, peptide start residue: 255) (UniProt P14859)",0.0352
3,"UniProt P20823 (peptide sequence: VYNWFANR, peptide start residue: 326)",-0.16
4,"PSMC3 (peptide sequence: KMNVSPDVNYEELAR, peptide start residue: 372) (UniProt P17980)",0.196
5,"UniProt P17017 (peptide sequence: ETFTGAKPHECSFCGR, peptide start residue: 95)",0.604
6,"TRIM27 (peptide sequence: HLANVTQLVK, peptide start residue: 70) (UniProt P14373)",0.308
7,"RAB5A (peptide sequence: LVLLGESAVGK, peptide start residue: 24) (UniProt P20339)",0.151
8,"SP100 (peptide sequence: NKVEISNAIKK, peptide start residue: 60) (UniProt P23497)",0.394
9,"TAF1 (peptide sequence: TAPWNTTR, peptide start residue: 929) (UniProt P21675)",0.196
10,"G0S2 (peptide sequence: QQDTVLGGR, peptide start residue: 86) (UniProt P27469)",0.348
11,"UniProt P17481 (peptide sequence: RIEVSHALGLTER, peptide start residue: 176)",0.144
12,"RASA1 (peptide sequence: EIYNTIR, peptide start residue: 458) (UniProt P20936)",-0.168
13,"CPT2 (peptide sequence: SIVPTMHYQDSLPR, peptide start residue: 38) (UniProt P23786)",0.305
14,"DTYMK (peptide sequence: EKLSQGVTLVVDR, peptide start residue: 85) (UniProt P23919)",-0.478
15,"ST6GAL1 (peptide sequence: CAVVSSAGSLK, peptide start residue: 184) (UniProt P15907)",-0.217
16,"MSH3 (peptide sequence: FHSPFIVENYR, peptide start residue: 780) (UniProt P20585)",0.35
17,"ALAD (peptide sequence: AAVLEAMTAFR, peptide start residue: 298) (UniProt P13716)",-0.897
18,"ZKSCAN1 (peptide sequence: AETSEDSASRGETTGR, peptide start residue: 281) (UniProt P17029)",-0.466
19,"PSMA4 (peptide sequence: LLDEVFFSEK, peptide start residue: 55) (UniProt P25789)",-0.0961
20,"CEBPB (peptide sequence: GALHPGCFAPLHPPPPPPPPPAELK, peptide start residue: 150) (UniProt P17676)",-0.173
21,"RPL17 (peptide sequence: EQIVPKPEEEVAQKK, peptide start residue: 154) (UniProt P18621)",-0.142
22,"PSMB9 (peptide sequence: AGAPTGDLPR, peptide start residue: 4) (UniProt P28065)",-0.123
23,"PSMB5 (peptide sequence: ATAGAYIASQTVKK, peptide start residue: 79) (UniProt P28074)",-0.55
24,"GSPT1 (peptide sequence: AYFETEKK, peptide start residue: 145) (UniProt P15170)",0.0833
25,"HSP90B1 (peptide sequence: AQAYQTGKDISTNYYASQKK, peptide start residue: 664) (UniProt P14625)",-0.756
26,"UniProt P23763 (peptide sequence: VNVDKVLER, peptide start residue: 31)",-0.141
27,"ETFA (peptide sequence: VVPEMTEILK, peptide start residue: 322) (UniProt P13804)",0.223
28,"PRKCSH (peptide sequence: DMEESIR, peptide start residue: 386) (UniProt P14314)",-0.129
29,"DNAJB2 (peptide sequence: SPEEVFR, peptide start residue: 98) (UniProt P25686)",-0.253
30,"MAP4 (peptide sequence: TTDMAPSK, peptide start residue: 247) (UniProt P27816)",-0.444

# A different layout for part of the listing above.
row | Target | log2 fold change
1 | UniProt P25705 (peptide sequence: DNGKHALIIYDDLSKQAVAYR, peptide start residue: 302) | 0.783
6 | TRIM27 (peptide sequence: HLANVTQLVK, peptide start residue: 70) (UniProt P14373) | 0.308
9 | TAF1 (peptide sequence: TAPWNTTR, peptide start residue: 929) (UniProt P21675) | 0.196
10 | G0S2 (peptide sequence: QQDTVLGGR, peptide start residue: 86) (UniProt P27469) | 0.348
12 | RASA1 (peptide sequence: EIYNTIR, peptide start residue: 458) (UniProt P20936) | -0.168
15 | ST6GAL1 (peptide sequence: CAVVSSAGSLK, peptide start residue: 184) (UniProt P15907) | -0.217
16 | MSH3 (peptide sequence: FHSPFIVENYR, peptide start residue: 780) (UniProt P20585) | 0.35
18 | ZKSCAN1 (peptide sequence: AETSEDSASRGETTGR, peptide start residue: 281) (UniProt P17029) | -0.466
19 | PSMA4 (peptide sequence: LLDEVFFSEK, peptide start residue: 55) (UniProt P25789) | -0.0961
